Source: PMC11285970

Sequences of proteins named here, by UniProt entry; tags and fusion partners are left off. A change or cut given only in a name is not applied to a line headed by its entry.
UniProt A4HV28: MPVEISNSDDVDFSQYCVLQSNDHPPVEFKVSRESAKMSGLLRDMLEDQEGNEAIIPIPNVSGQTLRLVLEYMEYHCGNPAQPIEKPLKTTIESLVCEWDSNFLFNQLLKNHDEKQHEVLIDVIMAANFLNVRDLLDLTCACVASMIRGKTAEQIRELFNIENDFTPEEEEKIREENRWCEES
UniProt A4I137: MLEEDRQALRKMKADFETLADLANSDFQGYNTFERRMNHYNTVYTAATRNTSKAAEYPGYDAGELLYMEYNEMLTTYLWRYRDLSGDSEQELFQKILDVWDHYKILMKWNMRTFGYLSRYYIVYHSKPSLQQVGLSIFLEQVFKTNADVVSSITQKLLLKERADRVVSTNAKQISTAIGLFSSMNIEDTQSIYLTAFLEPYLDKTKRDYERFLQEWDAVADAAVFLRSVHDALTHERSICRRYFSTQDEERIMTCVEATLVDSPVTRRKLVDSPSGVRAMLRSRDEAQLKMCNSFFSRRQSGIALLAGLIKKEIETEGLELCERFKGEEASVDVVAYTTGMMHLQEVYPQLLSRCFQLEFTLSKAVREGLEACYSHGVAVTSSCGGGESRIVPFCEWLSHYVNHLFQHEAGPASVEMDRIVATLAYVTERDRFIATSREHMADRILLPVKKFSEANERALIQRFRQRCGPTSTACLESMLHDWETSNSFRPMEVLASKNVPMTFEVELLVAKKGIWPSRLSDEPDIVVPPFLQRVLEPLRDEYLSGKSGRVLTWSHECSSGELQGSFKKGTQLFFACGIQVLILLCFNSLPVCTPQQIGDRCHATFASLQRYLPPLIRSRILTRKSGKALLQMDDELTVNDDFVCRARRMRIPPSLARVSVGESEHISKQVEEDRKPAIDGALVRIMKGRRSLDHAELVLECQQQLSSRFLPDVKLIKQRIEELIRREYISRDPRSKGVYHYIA
UniProt A4I953: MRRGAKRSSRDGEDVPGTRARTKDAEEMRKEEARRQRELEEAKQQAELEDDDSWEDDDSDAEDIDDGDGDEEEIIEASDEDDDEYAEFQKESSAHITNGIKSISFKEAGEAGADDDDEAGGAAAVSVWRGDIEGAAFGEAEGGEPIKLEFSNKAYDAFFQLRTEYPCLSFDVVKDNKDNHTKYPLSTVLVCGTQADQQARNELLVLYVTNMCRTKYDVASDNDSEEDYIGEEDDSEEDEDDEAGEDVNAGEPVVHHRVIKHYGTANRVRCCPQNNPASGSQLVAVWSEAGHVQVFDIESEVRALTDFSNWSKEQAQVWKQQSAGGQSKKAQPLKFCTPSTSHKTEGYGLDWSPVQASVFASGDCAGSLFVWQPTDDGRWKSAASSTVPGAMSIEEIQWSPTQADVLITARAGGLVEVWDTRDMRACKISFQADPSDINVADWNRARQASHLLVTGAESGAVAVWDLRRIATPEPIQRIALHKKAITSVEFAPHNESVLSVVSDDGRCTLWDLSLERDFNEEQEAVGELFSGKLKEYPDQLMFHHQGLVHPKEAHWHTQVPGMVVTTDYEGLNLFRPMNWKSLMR
UniProt A4I7N7: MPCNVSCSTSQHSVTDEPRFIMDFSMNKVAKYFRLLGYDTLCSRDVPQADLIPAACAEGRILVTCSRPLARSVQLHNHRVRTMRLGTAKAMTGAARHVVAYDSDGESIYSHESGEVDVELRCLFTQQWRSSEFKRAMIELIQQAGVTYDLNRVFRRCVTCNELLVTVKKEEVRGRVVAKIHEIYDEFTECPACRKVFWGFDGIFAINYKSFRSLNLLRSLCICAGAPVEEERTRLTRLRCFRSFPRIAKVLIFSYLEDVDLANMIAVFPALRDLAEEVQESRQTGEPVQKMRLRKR
UniProt E9AHR9: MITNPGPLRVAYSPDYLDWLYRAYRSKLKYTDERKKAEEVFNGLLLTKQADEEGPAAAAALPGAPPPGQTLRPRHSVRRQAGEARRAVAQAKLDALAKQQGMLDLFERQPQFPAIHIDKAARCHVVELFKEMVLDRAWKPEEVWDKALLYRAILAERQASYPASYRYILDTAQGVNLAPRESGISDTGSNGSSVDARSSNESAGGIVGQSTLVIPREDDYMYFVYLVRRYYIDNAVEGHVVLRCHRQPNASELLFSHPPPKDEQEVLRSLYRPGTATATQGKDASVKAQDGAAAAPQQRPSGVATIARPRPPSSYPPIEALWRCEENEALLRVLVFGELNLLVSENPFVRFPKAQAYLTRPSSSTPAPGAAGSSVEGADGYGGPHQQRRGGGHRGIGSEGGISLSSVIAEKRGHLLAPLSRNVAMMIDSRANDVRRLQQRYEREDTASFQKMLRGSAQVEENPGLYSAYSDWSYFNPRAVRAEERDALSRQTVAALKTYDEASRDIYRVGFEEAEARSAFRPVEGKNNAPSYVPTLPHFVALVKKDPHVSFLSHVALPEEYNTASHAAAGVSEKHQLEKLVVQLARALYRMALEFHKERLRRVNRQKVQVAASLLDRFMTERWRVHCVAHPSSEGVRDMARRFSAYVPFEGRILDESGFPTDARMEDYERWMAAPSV
UniProt A4I9T3: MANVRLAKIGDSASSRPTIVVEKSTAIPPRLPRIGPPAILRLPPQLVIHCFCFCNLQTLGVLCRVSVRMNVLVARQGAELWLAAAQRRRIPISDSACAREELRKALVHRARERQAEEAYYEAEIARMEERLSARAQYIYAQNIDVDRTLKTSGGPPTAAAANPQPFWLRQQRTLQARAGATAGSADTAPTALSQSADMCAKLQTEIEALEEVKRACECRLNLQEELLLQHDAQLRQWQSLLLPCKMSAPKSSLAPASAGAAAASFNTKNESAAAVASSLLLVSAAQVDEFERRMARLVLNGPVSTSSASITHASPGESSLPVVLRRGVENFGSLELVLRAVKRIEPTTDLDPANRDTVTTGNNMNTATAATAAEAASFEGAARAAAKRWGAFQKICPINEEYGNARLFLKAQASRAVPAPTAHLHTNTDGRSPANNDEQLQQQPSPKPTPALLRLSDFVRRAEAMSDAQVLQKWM
UniProt A4I8H1: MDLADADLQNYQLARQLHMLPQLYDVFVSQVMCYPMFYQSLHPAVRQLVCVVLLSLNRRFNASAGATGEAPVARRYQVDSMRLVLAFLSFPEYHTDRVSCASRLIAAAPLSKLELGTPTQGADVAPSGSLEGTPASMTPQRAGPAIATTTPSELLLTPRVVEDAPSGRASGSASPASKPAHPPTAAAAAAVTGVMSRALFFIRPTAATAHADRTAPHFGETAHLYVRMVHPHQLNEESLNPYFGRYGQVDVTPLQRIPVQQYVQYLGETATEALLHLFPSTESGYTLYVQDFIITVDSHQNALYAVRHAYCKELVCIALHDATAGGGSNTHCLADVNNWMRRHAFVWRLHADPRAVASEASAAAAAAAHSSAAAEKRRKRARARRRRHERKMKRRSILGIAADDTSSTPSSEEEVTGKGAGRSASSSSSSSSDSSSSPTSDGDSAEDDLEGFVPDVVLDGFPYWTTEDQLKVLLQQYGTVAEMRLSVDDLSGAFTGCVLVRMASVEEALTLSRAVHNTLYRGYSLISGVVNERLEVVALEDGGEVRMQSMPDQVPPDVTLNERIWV
UniProt A4ICF5: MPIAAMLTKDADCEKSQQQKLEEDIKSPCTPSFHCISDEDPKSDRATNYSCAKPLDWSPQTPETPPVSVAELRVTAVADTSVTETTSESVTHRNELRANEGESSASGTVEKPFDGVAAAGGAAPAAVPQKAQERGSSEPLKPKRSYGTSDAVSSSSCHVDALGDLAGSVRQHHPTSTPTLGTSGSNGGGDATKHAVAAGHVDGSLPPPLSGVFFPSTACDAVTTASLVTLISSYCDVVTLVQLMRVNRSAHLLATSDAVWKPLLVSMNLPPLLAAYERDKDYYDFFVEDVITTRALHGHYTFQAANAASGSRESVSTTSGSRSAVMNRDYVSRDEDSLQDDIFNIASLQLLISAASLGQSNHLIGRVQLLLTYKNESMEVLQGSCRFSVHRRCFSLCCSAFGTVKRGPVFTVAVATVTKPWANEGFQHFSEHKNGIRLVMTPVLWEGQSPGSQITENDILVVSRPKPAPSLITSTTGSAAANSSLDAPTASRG
UniProt A4HWG7: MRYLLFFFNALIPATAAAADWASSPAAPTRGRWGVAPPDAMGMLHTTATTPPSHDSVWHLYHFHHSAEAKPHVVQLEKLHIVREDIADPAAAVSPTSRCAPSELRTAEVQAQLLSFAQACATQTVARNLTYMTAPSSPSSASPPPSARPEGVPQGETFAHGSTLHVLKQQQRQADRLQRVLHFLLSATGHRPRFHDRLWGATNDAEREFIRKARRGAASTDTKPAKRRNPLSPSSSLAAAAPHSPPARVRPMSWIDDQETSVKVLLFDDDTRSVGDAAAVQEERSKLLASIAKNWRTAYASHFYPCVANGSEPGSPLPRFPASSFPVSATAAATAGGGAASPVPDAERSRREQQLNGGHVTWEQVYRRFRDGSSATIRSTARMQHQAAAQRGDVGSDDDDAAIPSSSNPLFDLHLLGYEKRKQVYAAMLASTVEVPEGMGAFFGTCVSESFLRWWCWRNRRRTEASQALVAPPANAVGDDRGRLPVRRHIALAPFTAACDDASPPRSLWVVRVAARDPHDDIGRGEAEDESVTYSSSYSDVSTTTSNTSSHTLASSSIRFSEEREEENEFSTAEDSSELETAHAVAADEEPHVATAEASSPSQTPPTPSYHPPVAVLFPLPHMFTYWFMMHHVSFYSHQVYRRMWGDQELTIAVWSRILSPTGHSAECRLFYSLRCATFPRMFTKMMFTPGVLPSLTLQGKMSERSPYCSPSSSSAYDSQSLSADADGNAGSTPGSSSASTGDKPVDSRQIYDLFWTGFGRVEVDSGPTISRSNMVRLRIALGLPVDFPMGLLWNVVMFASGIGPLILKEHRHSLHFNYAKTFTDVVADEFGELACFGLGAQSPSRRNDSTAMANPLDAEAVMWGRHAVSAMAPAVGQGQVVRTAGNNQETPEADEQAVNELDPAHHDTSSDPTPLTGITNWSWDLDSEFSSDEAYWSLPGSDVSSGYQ
UniProt A4I0T9: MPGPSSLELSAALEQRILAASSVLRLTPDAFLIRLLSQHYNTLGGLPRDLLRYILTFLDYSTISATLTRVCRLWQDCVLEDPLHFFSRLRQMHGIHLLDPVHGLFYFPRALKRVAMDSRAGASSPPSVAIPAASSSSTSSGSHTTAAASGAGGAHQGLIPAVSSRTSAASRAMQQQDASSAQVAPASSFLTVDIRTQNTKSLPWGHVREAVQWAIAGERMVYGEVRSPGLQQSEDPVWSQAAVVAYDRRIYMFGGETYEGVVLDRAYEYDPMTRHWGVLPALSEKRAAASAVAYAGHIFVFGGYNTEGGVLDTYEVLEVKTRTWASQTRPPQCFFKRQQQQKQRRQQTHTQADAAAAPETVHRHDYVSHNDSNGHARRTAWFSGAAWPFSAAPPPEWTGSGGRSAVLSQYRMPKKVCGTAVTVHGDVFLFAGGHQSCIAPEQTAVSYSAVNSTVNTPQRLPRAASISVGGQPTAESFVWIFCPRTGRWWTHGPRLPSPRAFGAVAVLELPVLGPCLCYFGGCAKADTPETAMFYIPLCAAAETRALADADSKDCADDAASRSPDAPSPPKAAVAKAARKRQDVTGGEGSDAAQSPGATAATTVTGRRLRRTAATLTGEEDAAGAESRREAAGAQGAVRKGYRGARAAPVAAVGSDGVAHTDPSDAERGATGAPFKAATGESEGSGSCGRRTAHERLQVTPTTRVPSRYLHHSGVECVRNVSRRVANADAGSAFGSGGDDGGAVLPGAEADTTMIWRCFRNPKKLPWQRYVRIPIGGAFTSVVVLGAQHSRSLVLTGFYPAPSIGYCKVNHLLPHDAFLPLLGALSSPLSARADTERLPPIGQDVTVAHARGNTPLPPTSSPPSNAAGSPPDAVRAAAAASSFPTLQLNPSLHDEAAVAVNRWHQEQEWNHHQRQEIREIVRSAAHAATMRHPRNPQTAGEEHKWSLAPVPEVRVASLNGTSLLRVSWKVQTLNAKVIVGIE
UniProt A4IAM5: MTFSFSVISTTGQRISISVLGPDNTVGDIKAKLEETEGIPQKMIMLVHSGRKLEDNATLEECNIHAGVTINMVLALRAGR
UniProt A4HTC4: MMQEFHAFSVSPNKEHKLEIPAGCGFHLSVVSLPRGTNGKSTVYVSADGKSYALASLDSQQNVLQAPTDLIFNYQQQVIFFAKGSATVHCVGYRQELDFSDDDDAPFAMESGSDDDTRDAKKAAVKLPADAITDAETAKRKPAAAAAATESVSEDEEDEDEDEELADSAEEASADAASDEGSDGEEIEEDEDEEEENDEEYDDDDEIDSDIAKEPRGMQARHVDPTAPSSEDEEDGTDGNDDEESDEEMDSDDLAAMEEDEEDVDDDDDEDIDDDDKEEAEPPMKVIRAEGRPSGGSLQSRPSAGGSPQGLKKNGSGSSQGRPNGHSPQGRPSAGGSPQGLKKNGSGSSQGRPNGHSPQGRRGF

Experiments:
[1] = target: 3xmyc-mCherry-LinfSkp1 (tagged at the gene's own locus in L. infantum) (L. infantum) (UniProt A4HV28); experiment: affinity purification with mass spectrometry; lysates of L. infantum lines with 3x myc-mCherry::SKP1 or 3x myc-mCherry::CUL1 (parental Cas9 T7 as negative control); NP-40 lysis buffer with 225 mM KCl; 20 mg protein on anti-myc beads 3 h at 4 °C; on-bead trypsin digestion; nLC-MS/MS; three …
[2] = target: 3xmyc-mCherry-LinfCul1 (tagged at the gene's own locus in L. infantum) (L. infantum) (UniProt A4I137); experiment: as above

Substance | binding [1] | binding [2]
LINF_330027700 (RNA binder), endogenous (from UniProt A4I953) | binds | 
LINF_320012500 (RNA binder), endogenous (from UniProt A4I7N7) | binds | 
LINF_330034300 (RNA binder), endogenous (from UniProt E9AHR9) | binds | 
LinfFlp5, endogenous (LINF_340019100) (from UniProt A4I9T3) | binds | 
LINF_320042200 (RNA binder), endogenous (from UniProt A4I8H1) | binds | 
LinfFlp6, endogenous (LINF_360032300) (from UniProt A4ICF5) | binds | 
LinfFlp2, endogenous (LINF_150014400) (from UniProt A4HWG7) | binds | 

More lines, now with the values ahead:

binding [1] | binding [2] | Substance
binds |  | LinfFlp1, endogenous (LINF_240015400) (from UniProt A4I0T9)
binds | binds | ubiquitin-like protein LINF_340026400, endogenous (from UniProt A4IAM5)
binds |  | LINF_070016300 (RNA binder), endogenous (from UniProt A4HTC4)

No constants are given. Whether binding was seen depends on the method and setting. In cells and extracts the contact can be indirect. These calls come from enrichment with a bait or labelling near it, and not all partners need be listed.
